Data as given in paper PMC5771197.
Results are given in words; binding and its absence hold for the method and conditions named.

Amino acid sequences for entries named in this document (tags omitted).
UniProt P12520: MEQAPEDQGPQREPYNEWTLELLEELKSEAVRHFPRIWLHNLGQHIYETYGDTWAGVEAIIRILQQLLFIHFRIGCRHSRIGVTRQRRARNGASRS
UniProt P27694: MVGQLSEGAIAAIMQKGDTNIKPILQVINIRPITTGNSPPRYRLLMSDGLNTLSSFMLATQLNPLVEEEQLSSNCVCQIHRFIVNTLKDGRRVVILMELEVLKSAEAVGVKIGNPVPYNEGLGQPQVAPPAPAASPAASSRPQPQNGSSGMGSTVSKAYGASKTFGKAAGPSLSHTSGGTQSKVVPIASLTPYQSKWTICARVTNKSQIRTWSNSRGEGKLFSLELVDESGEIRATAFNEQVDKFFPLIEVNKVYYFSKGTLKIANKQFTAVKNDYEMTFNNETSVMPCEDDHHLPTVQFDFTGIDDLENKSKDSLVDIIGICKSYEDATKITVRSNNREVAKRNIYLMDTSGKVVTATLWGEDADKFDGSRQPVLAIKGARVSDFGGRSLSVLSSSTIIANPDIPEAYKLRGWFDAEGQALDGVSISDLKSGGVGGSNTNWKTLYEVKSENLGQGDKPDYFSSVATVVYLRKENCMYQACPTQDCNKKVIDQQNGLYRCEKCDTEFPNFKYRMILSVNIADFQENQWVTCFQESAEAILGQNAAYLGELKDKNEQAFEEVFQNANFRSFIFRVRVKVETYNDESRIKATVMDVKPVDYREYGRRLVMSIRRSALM

B1: T4gp32 (T4 gene 32 protein) (protein, UniProt P03695 1-301)
chain: MFKRKSTAELAAQMAKLNGNKGFSSEDKGEWKLKLDNAGNGQAVIRFLPSKNDEQAPFAILVNHGFKKNGKWYIETCSSTHGDYDSCPVCQYISKNDLYNTDNKEYSLVKRKTSYWANILVVKDPAAPENEGKVFKYRFGKKIWDKINAMIAVDVEMGETPVDVTCPWEGANFVLKVKQVSGFSNYDESKFLNQSAIPNIDDESFQKELFEQMVDLSEMTSKDKFKSFEELNTKFGQVMGTAVMGGAAATAAKKADKVADDLDAFNVDDFNTKTEDDFMSSSSGSSSSADDTDLDDLLNDL

Tests used:
[1] = molecular target: FLAG-Strep-tag2 (F/S) fused to the N-terminus of Vpr (viral protein R of HIV-1, pNL4-3) (HIV-1 (pNL4-3)) (UniProt P12520); experiment: condition: FLAG-Strep-Vpr 0.1, 0.317, 1.0 pmol with rRPA70 1.0 pmol; pull-down; FLAG-Strep-Vpr (0.1, 0.317, 1.0 pmol) incubated with rRPA70 (1.0 pmol), pulled down with Streptavidine M280 beads; proteins analysed by Western blot; both purified
[2] = molecular target: FLAG-Strep-tag2 (F/S) fused to the N-terminus of Vpr (viral protein R of HIV-1, pNL4-3) (HIV-1 (pNL4-3)) (UniProt P12520); experiment: condition: FLAG-Strep-Vpr 1, 3.17, 10 pmol with T4gp32 100 pmol; pull-down; FLAG-Strep-Vpr (1, 3.17, 10 pmol) incubated with T4gp32 (100 pmol), pulled down with Streptavidine M280 beads; proteins visualized by Oriole fluorescent gel staining; both purified

Molecule	binding [1]	binding [2]
recombinant RPA70 (replication protein A 70-kDa subunit, hRPA70) (from UniProt P27694 1-616)	no binding	–
B1	–	no binding
